The supplement of paper PMC3334620
In all, about 33,000 sequences were measured (“E-score (-0.5 to 0.5)”: median about -0.016, highest 2% from about 0.3 on). Some of the results follow.

The sequences below were run against T1, Yer184c (UniProt P39961) (assay: PBM E-score (8-mer binding enrichment) (E-score (-0.5 to 0.5)); higher = stronger / more preferred TF binding). Settings: protein concentration: 100 nM; construct: GST-full length.
T1 sequence: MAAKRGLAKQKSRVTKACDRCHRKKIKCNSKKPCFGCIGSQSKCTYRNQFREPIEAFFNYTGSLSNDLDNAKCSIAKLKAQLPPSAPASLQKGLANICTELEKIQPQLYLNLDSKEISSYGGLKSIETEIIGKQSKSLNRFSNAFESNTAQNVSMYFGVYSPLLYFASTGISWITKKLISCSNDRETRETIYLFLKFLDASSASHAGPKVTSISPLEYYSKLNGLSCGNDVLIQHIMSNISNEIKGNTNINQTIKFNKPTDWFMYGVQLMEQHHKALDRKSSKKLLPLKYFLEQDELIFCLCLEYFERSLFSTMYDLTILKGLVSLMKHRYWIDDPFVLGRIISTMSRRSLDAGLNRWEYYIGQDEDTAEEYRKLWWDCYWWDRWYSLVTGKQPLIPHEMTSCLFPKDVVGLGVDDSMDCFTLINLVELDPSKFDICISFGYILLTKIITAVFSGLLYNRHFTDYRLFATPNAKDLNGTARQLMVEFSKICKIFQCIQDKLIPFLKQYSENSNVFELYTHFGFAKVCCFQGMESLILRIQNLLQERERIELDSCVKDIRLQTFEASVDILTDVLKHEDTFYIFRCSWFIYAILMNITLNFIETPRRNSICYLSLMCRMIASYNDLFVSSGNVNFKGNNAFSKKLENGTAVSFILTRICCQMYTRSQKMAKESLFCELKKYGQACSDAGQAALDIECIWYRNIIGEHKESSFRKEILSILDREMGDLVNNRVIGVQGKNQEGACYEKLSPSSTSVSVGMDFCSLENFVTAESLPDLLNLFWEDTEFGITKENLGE
Outline: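 PURExpress in vitro transcription/translation supplied GST-tagged yeast transcription factors, either full-length or DNA-binding domain. Applied at about 100-200 nM to universal all-10-mer Agilent arrays double-stranded by primer extension, the bound protein was detected with fluorescent anti-GST. E-scores, modified Wilcoxon-Mann-Whitney statistics, were given by the Universal PBM Analysis Suite to ungapped eight-base words pooled with their reverse complements after masliner normalisation.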
GATTACCA was tested, and the “PBM E-score” value was 0.0238.
AAAGTAGT was tested, and the “PBM E-score” value was -0.00674.
In the case of CATTAGGG, the “PBM E-score” value is reported as -0.12.
AGACGCCT was tested, and the “PBM E-score” value was -0.203.
In the case of ACGTAGTG, the “PBM E-score” value is reported as -0.226.
In the case of AAGACGCC, the “PBM E-score” value is reported as 0.0681.
For CTAATATA, the “PBM E-score” value was 0.118.
In the case of AGGCCAGG, the “PBM E-score” value is reported as -0.26.
ATCAAAAG was tested, and the “PBM E-score” value was 0.11.
GGCCTACC was tested, and the “PBM E-score” value was -0.147.
For TAACTGGA, the “PBM E-score” value was -0.111.
In the case of GCCGTGCA, the “PBM E-score” value is reported as -0.0105.
CCTCGTAC was tested, and the “PBM E-score” value was 0.00997.
For AACTTTTA, the “PBM E-score” value was 0.196.
With ATGAGTAC the “PBM E-score” value was -0.0717.
In the case of CCTAGGTC, the “PBM E-score” value is reported as -0.139.
In the case of CTGTCAAG, the “PBM E-score” value is reported as -0.14.
In the case of CCTCAAAA, the “PBM E-score” value is reported as 0.0505.
GCTTTACC was tested, and the “PBM E-score” value was -0.00898.
In the case of CTGACAAG, the “PBM E-score” value is reported as 0.0434.
GGAACCCC was tested, and the “PBM E-score” value was -0.223.
For GCCTGAAA, the “PBM E-score” value was 0.191.
GCGCACCC was tested, and the “PBM E-score” value was -0.028.
In the case of ACACACGG, the “PBM E-score” value is reported as 0.111.
For AACCGACC, the “PBM E-score” value was 0.147.
In the case of ATGCTGAG, the “PBM E-score” value is reported as -0.261.
With CAACGCAG the “PBM E-score” value was -0.0829.
In the case of GAATAACC, the “PBM E-score” value is reported as 0.0185.
ACAGACGC was tested, and the “PBM E-score” value was -0.0642.
With ACCCTTTC the “PBM E-score” value was -0.0222.
With GAACGTGA the “PBM E-score” value was 0.0388.
With GCCTCGTA the “PBM E-score” value was 0.00566.
With GTAGCCGA the “PBM E-score” value was 0.165.
In the case of CACCTGCA, the “PBM E-score” value is reported as -0.131.
CATGCTAA was tested, and the “PBM E-score” value was -0.0701.
For GACGCTCC, the “PBM E-score” value was -0.0887.
For CGTCGGAG, the “PBM E-score” value was 0.0883.
In the case of GGGCGCCC, the “PBM E-score” value is reported as 0.0854.
With ATAAACCG the “PBM E-score” value was 0.112.
In the case of CACGTCTC, the “PBM E-score” value is reported as -0.0953.
With CTAATGCA the “PBM E-score” value was 0.0794.
For AGTGTCAA, the “PBM E-score” value was 0.022.
For ACTAGACT, the “PBM E-score” value was -0.26.
CAGATATC was tested, and the “PBM E-score” value was 0.0611.
With ACGGTGCC the “PBM E-score” value was 0.136.
In the case of ACAAAGTC, the “PBM E-score” value is reported as -0.106.
With AGTGAAAA the “PBM E-score” value was 0.158.
In the case of CCGCTGAC, the “PBM E-score” value is reported as -0.0991.
For CCCGCACG, the “PBM E-score” value was -0.0578.
ACCTAGGT was tested, and the “PBM E-score” value was -0.213.
GAATCACC was tested, and the “PBM E-score” value was -0.0203.
With GTATCGCA the “PBM E-score” value was 0.0506.
With CGGGACCG the “PBM E-score” value was 0.31.
With AATAAGCC the “PBM E-score” value was -0.0336.
ACTGGTCT was tested, and the “PBM E-score” value was -0.135.
In the case of CGCAGTTA, the “PBM E-score” value is reported as 0.0714.
For CCGCCTGA, the “PBM E-score” value was -0.12.
ATGAGCAT was tested, and the “PBM E-score” value was 0.106.
For CAGGTTTA, the “PBM E-score” value was 0.0392.
In the case of ATGAGAAA, the “PBM E-score” value is reported as 0.11.
With TAAGACGA the “PBM E-score” value was -0.0596.
With AGCGATGA the “PBM E-score” value was -0.0495.
For CAGAAACA, the “PBM E-score” value was 0.0511.
For GCAAACTA, the “PBM E-score” value was 0.0897.
For AATCCGAT, the “PBM E-score” value was 0.275.
GGACTGAA was tested, and the “PBM E-score” value was 0.0645.
In the case of CCAGTGTC, the “PBM E-score” value is reported as -0.169.
ACGGAATG was tested, and the “PBM E-score” value was 0.167.
In the case of AGCGGTTC, the “PBM E-score” value is reported as -0.037.
For ACACCTAA, the “PBM E-score” value was -0.00993.
With TCATAAAA the “PBM E-score” value was 0.192.
In the case of CTAAATGA, the “PBM E-score” value is reported as -0.0287.
CCGCGGGC was tested, and the “PBM E-score” value was 0.25.
With AAGCCCTC the “PBM E-score” value was -0.202.
In the case of AAAGTGGT, the “PBM E-score” value is reported as -0.106.
ACACATAC was tested, and the “PBM E-score” value was -0.0164.
ATCAAGCC was tested, and the “PBM E-score” value was 0.0569.
With CCTAACCG the “PBM E-score” value was -0.0409.
ATCTCTGA was tested, and the “PBM E-score” value was -0.107.
CAAAACGG was tested, and the “PBM E-score” value was 0.188.
In the case of AAACCGAC, the “PBM E-score” value is reported as 0.0341.
In the case of GCTCTTCC, the “PBM E-score” value is reported as 0.0925.
ACTTGAAG was tested, and the “PBM E-score” value was -0.0169.
In the case of ATTCATCG, the “PBM E-score” value is reported as 0.0799.
For ACACTGAG, the “PBM E-score” value was -0.154.
In the case of CGTGCCGC, the “PBM E-score” value is reported as 0.034.
With AGAATCAT the “PBM E-score” value was 0.0874.
In the case of CTCGAGCA, the “PBM E-score” value is reported as 0.0232.
For CGGCCTTA, the “PBM E-score” value was 0.291.
In the case of ACAAGTGC, the “PBM E-score” value is reported as -0.264.
CTTCATCC was tested, and the “PBM E-score” value was -0.0447.
AACACCCT was tested, and the “PBM E-score” value was -0.14.
In the case of ACAGATGA, the “PBM E-score” value is reported as -0.112.
In the case of ACGGGGAA, the “PBM E-score” value is reported as 0.021.
